Binding data for 7 molecules are collected here from paper PMC7364817.

Chains of the proteins cited; added tags and fusions are not shown.
UniProt P35998: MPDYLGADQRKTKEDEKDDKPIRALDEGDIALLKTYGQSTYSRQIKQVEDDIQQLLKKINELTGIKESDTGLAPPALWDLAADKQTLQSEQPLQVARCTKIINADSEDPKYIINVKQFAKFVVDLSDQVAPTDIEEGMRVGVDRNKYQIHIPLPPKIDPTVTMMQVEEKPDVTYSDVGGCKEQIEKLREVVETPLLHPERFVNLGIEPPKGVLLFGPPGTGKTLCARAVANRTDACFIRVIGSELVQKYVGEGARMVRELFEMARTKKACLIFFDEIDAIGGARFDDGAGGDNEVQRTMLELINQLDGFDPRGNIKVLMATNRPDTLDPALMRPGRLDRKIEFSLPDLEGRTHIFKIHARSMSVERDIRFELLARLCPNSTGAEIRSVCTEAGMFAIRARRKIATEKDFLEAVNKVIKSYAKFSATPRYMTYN
UniProt Q8TDY2: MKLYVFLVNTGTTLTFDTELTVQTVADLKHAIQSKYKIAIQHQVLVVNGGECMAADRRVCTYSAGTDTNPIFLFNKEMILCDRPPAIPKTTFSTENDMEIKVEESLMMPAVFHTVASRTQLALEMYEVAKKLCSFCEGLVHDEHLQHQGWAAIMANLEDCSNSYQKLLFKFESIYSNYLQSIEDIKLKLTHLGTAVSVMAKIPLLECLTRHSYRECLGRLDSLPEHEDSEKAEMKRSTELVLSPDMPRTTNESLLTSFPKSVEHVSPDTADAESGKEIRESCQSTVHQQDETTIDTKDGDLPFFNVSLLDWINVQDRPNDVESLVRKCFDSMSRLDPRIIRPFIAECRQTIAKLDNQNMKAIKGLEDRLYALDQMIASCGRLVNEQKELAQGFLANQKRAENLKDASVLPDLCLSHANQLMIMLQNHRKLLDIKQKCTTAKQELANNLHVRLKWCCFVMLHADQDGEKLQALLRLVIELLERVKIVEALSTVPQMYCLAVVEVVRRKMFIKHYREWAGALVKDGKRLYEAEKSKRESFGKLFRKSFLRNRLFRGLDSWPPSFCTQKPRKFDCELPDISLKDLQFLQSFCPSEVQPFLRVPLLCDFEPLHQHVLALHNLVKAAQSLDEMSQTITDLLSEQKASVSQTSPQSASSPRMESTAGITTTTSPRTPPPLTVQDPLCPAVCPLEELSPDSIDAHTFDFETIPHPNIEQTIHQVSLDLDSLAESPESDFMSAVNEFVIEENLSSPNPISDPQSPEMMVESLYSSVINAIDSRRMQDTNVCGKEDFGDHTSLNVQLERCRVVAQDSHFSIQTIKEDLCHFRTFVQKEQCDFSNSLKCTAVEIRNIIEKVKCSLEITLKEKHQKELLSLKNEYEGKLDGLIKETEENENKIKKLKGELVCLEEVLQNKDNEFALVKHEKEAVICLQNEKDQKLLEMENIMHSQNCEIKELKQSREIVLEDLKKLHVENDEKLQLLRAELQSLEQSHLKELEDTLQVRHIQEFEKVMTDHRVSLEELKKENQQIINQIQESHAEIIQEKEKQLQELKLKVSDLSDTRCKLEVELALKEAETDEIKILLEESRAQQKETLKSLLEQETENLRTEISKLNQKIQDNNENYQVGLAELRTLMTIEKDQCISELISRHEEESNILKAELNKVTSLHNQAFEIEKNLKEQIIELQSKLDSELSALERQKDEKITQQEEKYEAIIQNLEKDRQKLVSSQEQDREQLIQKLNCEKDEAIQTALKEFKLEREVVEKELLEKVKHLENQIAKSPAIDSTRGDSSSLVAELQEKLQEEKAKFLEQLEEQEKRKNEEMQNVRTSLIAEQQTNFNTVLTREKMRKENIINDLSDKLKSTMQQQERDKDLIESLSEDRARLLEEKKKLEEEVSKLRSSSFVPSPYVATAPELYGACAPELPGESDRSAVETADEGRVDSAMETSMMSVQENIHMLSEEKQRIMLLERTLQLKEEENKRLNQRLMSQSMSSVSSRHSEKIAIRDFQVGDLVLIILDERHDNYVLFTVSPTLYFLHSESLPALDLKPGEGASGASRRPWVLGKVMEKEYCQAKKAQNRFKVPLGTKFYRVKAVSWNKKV
UniProt Q9H0U4: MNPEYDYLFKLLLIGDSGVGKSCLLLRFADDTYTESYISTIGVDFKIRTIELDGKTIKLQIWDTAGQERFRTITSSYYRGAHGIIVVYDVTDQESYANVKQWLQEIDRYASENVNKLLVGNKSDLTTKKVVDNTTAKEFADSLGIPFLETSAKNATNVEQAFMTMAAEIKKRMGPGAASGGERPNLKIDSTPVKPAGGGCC

Results are given in words; binding and its absence hold for the method and conditions named. Binding seen in cells or lysates may run through a third protein. Here binding means that the protein was enriched with, or labelled near, the bait; the list need not be complete. Tags and fused reporters may be left off the sequences shown.

Assay [1] has as its target T1, C9orf72 long isoform with C-terminal FLAG tag (human) (UniProt Q96LT7).
T1 sequence: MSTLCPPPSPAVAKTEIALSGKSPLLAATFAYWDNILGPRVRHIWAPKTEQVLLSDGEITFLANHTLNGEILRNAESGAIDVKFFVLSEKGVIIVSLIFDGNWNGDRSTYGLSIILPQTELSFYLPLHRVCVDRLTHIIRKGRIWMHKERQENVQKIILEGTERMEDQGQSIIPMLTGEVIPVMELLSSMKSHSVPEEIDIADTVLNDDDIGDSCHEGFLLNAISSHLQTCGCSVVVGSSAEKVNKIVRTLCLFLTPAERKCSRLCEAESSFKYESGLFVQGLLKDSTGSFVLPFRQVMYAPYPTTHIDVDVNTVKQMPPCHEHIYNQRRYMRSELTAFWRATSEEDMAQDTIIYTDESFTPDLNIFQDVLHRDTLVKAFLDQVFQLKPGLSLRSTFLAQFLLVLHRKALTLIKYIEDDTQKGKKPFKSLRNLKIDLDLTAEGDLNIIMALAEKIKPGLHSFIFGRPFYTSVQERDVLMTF
Nature of the assay: affinity purification with mass spectrometry; FL-SMCR8, C9orf72-FL or empty vector transfected in HEK 293T; α-FLAG agarose IP from whole cell lysates with or without RNase; LC-MS/MS; hits with three or more spectra and not detected in vector only control.

Assay [2] has as its target T2, FLAG-tagged SMCR8 (Smith-Magenis Syndrome Chromosome Region, Candidate 8) (UniProt Q8TEV9).
T2 sequence: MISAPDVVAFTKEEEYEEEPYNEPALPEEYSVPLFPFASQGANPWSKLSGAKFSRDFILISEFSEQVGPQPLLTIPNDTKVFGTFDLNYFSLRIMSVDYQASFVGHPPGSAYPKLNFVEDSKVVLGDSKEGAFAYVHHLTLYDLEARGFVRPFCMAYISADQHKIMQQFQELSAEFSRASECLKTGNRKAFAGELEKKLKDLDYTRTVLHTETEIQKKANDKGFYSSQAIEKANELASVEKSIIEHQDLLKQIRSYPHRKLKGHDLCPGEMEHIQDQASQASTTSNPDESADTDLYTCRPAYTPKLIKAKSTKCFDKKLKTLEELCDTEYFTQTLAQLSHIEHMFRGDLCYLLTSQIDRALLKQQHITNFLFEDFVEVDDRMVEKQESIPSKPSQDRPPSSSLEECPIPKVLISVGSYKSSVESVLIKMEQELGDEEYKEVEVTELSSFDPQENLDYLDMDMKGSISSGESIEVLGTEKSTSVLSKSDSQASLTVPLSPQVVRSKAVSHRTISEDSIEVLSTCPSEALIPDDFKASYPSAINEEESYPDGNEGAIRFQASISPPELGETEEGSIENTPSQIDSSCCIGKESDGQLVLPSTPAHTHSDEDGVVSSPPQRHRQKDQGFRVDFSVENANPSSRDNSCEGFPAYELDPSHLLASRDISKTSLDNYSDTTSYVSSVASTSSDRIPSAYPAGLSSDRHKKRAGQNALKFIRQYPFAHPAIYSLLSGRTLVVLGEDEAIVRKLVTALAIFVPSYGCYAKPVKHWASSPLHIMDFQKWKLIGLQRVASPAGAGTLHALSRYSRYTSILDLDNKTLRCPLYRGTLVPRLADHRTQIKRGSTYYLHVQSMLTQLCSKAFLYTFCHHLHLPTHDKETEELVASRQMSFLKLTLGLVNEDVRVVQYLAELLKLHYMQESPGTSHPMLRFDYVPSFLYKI
Described as above.

In the case of “proteasome 26S subunit, ATPase 2 (from UniProt P35998 1-433)”, the binding result in assay [1] and in assay [2] was “binds” throughout.
With RB1CC1 (from UniProt Q8TDY2 1-1594), the binding result in assay [1] and in assay [2] was “binds” in each case.
For the molecule “RAB1B, member RAS oncogene family (from UniProt Q9H0U4 1-201)”, the binding result in assay [1] and in assay [2] was “binds” each time.

B1: corneodesmosin (protein, UniProt Q15517 33-529)
chain: KSIGTFSDPCKDPTRITSPNDPCLTGKGDSSGFSSYSGSSSSGSSISSARSSGGGSSGSSSGSSIAQGGSAGSFKPGTGYSQVSYSSGSGSSLQGASGSSQLGSSSSHSGNSGSHSGSSSSHSSSSSSFQFSSSSFQVGNGSALPTNDNSYRGILNPSQPGQSSSSSQTFGVSSSGQSVSSNQRPCSSDIPDSPCSGGPIVSHSGPYIPSSHSVSGGQRPVVVVVDQHGSGAPGVVQGPPCSNGGLPGKPCPPITSVDKSYGGYEVVGGSSDSYLVPGMTYSKGKIYPVGYFTKENPVKGSPGVPSFAAGPPISEGKYFSSNPIIPSQSAASSAIAFQPVGTGGVQLCGGGSTGSKGPCSPSSSRVPSSSSISSSSGLPYHPCGSASQSPCSPPGTGSFSSSSSSQSSGKIILQPCGSKSSSSGHPCMSVSSLTLTGGPDGSPHPDPSAGAKPCGSSSAGKIPCRSIRDILAQVKPLGPQLADPEVFLPQGELLNSP
Turning to B1, the binding result in assay [1] is recorded as “binds”.

B2: serpin family B member 3 (protein, UniProt P29508 1-390)
chain: MNSLSEANTKFMFDLFQQFRKSKENNIFYSPISITSALGMVLLGAKDNTAQQIKKVLHFDQVTENTTGKAATYHVDRSGNVHHQFQKLLTEFNKSTDAYELKIANKLFGEKTYLFLQEYLDAIKKFYQTSVESVDFANAPEESRKKINSWVESQTNEKIKNLIPEGNIGSNTTLVLVNAIYFKGQWEKKFNKEDTKEEKFWPNKNTYKSIQMMRQYTSFHFASLEDVQAKVLEIPYKGKDLSMIVLLPNEIDGLQKLEEKLTAEKLMEWTSLQNMRETRVDLHLPRFKVEESYDLKDTLRTMGMVDIFNGDADLSGMTGSRGLVLSGVLHKAFVEVTEEGAEAAAATAVVGFGSSPTSTNEEFHCNHPFLFFIRQNKTNSILFYGRFSSP
For B2, the binding entry in assay [1] and in assay [2] was “binds” throughout.

B3: LUC7 like 3 pre-mRNA splicing factor (protein, UniProt O95232 1-432)
chain: MISAAQLLDELMGRDRNLAPDEKRSNVRWDHESVCKYYLCGFCPAELFTNTRSDLGPCEKIHDENLRKQYEKSSRFMKVGYERDFLRYLQSLLAEVERRIRRGHARLALSQNQQSSGAAGPTGKNEEKIQVLTDKIDVLLQQIEELGSEGKVEEAQGMMKLVEQLKEERELLRSTTSTIESFAAQEKQMEVCEVCGAFLIVGDAQSRVDDHLMGKQHMGYAKIKATVEELKEKLRKRTEEPDRDERLKKEKQEREEREKEREREREERERKRRREEEEREKERARDRERRKRSRSRSRHSSRTSDRRCSRSRDHKRSRSRERRRSRSRDRRRSRSHDRSERKHRSRSRDRRRSKSRDRKSYKHRSKSRDREQDRKSKEKEKRGSDDKKSSVKSGSREKQSEDTNTESKESDTKNEVNGTSEDIKSEGDTQSN
Turning to B3, the binding result in assay [1] is “binds”.

B4: isoleucyl-tRNA synthetase (protein, UniProt P41252 1-1262)
chain: MLQQVPENINFPAEEEKILEFWTEFNCFQECLKQSKHKPKFTFYDGPPFATGLPHYGHILAGTIKDIVTRYAHQSGFHVDRRFGWDCHGLPVEYEIDKTLGIRGPEDVAKMGITEYNNQCRAIVMRYSAEWKSTVSRLGRWIDFDNDYKTLYPQFMESVWWVFKQLYDKGLVYRGVKVMPFSTACNTPLSNFESHQNYKDVQDPSVFVTFPLEEDETVSLVAWTTTPWTLPSNLAVCVNPEMQYVKIKDVARGRLLILMEARLSALYKLESDYEILERFPGAYLKGKKYRPLFDYFLKCKENGAFTVLVDNYVKEEEGTGVVHQAPYFGAEDYRVCMDFNIIRKDSLPVCPVDASGCFTTEVTDFAGQYVKDADKSIIRTLKEQGRLLVATTFTHSYPFCWRSDTPLIYKAVPSWFVRVENMVDQLLRNNDLCYWVPELVREKRFGNWLKDARDWTISRNRYWGTPIPLWVSDDFEEVVCIGSVAELEELSGAKISDLHRESVDHLTIPSRCGKGSLHRISEVFDCWFESGSMPYAQVHYPFENKREFEDAFPADFIAEGIDQTRGWFYTLLVLATALFGQPPFKNVIVNGLVLASDGQKMSKRKKNYPDPVSIIQKYGADALRLYLINSPVVRAENLRFKEEGVRDVLKDVLLPWYNAYRFLIQNVLRLQKEEEIEFLYNENTVRESPNITDRWILSFMQSLIGFFETEMAAYRLYTVVPRLVKFVDILTNWYVRMNRRRLKGENGMEDCVMALETLFSVLLSLCRLMAPYTPFLTELMYQNLKVLIDPVSVQDKDTLSIHYLMLPRVREELIDKKTESAVSQMQSVIELGRVIRDRKTIPIKYPLKEIVVIHQDPEALKDIKSLEKYIIEELNVRKVTLSTDKNKYGIRLRAEPDHMVLGKRLKGAFKAVMTSIKQLSSEELEQFQKTGTIVVEGHELHDEDIRLMYTFDQATGGTAQFEAHSDAQALVLLDVTPDQSMVDEGMAREVINRIQKLRKKCNLVPTDEITVYYKAKSEGTYLNSVIESHTEFIFTTIKAPLKPYPVSPSDKVLIQEKTQLKGSELEITLTRGSSLPGPACAYVNLNICANGSEQGGVLLLENPKGDNRLDLLKLKSVVTSIFGVKNTELAVFHDETEIQNQTDLLSLSGKTLCVTAGSAPSLINSSSTLLCQYINLQLLNAKPQECLMGTVGTLLLENPLGQNGLTHQGLLYEAAKVFGLRSRKLKLFLNETQTQEITEDIPVKTLNMKTVYVSVLPTTADF
On to B4, for which the binding entry in assay [1] and in assay [2] was “binds” in each case.
